PubChem BioAssay AID743454 | Peter MacCallum Cancer Centre – 2014

- Purpose: 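Genes whose loss kills vorinostat-resistant colon cancer cells under vorinostat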 (primary screen)
- System: human HCT116-VR colon cancer cells, selected for vorinostat resistance
- Knock-down reagent: siRNA pool against human genes, 40 nM siRNA pool
- Timing: vorinostat for 24 h, read-out about 72 h after transfection
- Treatment: vorinostat at 2.5 µM final
- Read-out: 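Two measures, CellTiter-Fluor viability and luminescent caspase 3/7 activity, each as fold change against same-plate mock wells, mean of duplicates, then screen-wide robust z-score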
- Reading the numbers: viability robust z-score: higher = more viable cells than screen typical; caspase robust z-score: higher = more caspase 3/7 activity than screen typical
- Call rule: 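a knock-down is a hit when classed RV1 or RV2 for lowered viability, or CA1 or CA2 for caspase activation; those lethal without drug were dropped; hits were retested singly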
Shown is a random part of about 18,000 deposited reagents. In the full data, 450 (2.5%) are marked active. 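Single biological run; no consistent viability z cut-off exists, so the class columns, not z-scores, define the calls.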

no.	gene symbol	viability hit class	caspase hit class	viability robust z-score	caspase robust z-score	Outcome
1	ABCG4 (ATP binding cassette subfamily G member 4)	no change	no change	-1.53	-1.04	inactive
2	INO80D (INO80 complex subunit D)	no change	no change	-0.71	0.34	inactive
3	SSH3 (slingshot protein phosphatase 3)	no change	no change	0	3.04	inactive
4	GPR18 (G protein-coupled receptor 18)	no change	no change	-0.88	-0.95	inactive
5	LSM7	no change	no change	-1.58	-1.27	inactive
6	SH3RF3 (SH3 domain containing ring finger 3)	no change	no change	0.81	0.73	inactive
7	CDADC1 (cytidine and dCMP deaminase domain containing 1)	no change	no change	1.56	-0.06	inactive
8	CPN1 (carboxypeptidase N subunit 1)	no change	no change	-0.08	0.32	inactive
9	PTPRO (protein tyrosine phosphatase receptor type O)	no change	no change	0.56	-1.19	inactive
10	RELL2 (RELT like 2)	no change	no change	-0.56	-0.42	inactive
11	VCX3A (variable charge X-linked 3A)	no change	no change	-0.35	1.6	inactive
12	RPS5 (ribosomal protein S5)	no change	no change	-3.15	-0.84	inactive
13	MYH9 (myosin heavy chain 9)	no change	no change	-2.77	-1.19	inactive
14	DNAL4 (dynein axonemal light chain 4)	no change	no change	-0.01	0.3	inactive
15	GOLM1 (golgi membrane protein 1)	no change	no change	-0.01	-0.28	inactive
16	CNNM4	no change	no change	-1.01	1.54	inactive
17	ATP1B3 (ATPase Na+/K+ transporting subunit beta 3)	no change	no change	-0.9	3.52	inactive
18	GDF10 (growth differentiation factor 10)	no change	no change	-0.78	2.55	inactive
19	RBM10 (RNA binding motif protein 10)	no change	no change	-1.59	-1	inactive
20	UACA	no change	no change	1.2	-0.68	inactive
21	PPP1R7 (protein phosphatase 1 regulatory subunit 7)	no change	no change	0	0.9	inactive
22	RLIM (ring finger protein, LIM domain interacting)	no change	no change	0.73	0.06	inactive

Reformatted: results already given
gene symbol,viability hit class,caspase hit class,viability robust z-score,caspase robust z-score,Outcome
SH3RF3 (SH3 domain containing ring finger 3),no change,no change,0.81,0.73,inactive
CDADC1 (cytidine and dCMP deaminase domain containing 1),no change,no change,1.56,-0.06,inactive
CPN1 (carboxypeptidase N subunit 1),no change,no change,-0.08,0.32,inactive
PTPRO (protein tyrosine phosphatase receptor type O),no change,no change,0.56,-1.19,inactive
RELL2 (RELT like 2),no change,no change,-0.56,-0.42,inactive

The list goes on:
no.	gene symbol	viability hit class	caspase hit class	viability robust z-score	caspase robust z-score	Outcome
23	DYNLRB2 (dynein light chain roadblock-type 2)	no change	no change	-0.02	-0.06	inactive
24	LRP2 (LDL receptor related protein 2)	no change	no change	-1.13	0.08	inactive
25	CHST1 (carbohydrate sulfotransferase 1)	no change	no change	-0.39	2.53	inactive
26	STX5 (syntaxin 5)	no change	no change	-0.04	-0.48	inactive
27	IL21R (interleukin 21 receptor)	no change	no change	-0.52	-0.84	inactive
28	HACD1 (3-hydroxyacyl-CoA dehydratase 1)	no change	no change	0.55	0.55	inactive
29	SLC6A1	no change	no change	0.77	-0.34	inactive
30	TFAP2C (transcription factor AP-2 gamma)	no change	no change	1.01	1.34	inactive
31	HDDC2 (HD domain containing 2)	no change	no change	0.81	0.16	inactive
32	NRN1L (neuritin 1 like)	no change	no change	0.01	0.13	inactive
33	CCR5 (C-C motif chemokine receptor 5)	no change	no change	0.09	2.05	inactive
34	TBC1D3B (TBC1 domain family member 3B)	no change	no change	1.34	-0.3	inactive
35	ODAM (odontogenic, ameloblast associated)	no change	no change	-0.88	1.23	inactive
36	FUCA1 (alpha-L-fucosidase 1)	no change	no change	0.04	0.26	inactive
37	SLC5A3	no change	no change	0.64	-0.15	inactive
38	RAPSN (receptor associated protein of the synapse)	no change	no change	0.65	-0.48	inactive
39	SERPINB11 (serpin family B member 11)	no change	no change	0.06	-1.12	inactive
